Article PMC3441895
Results are given in words; binding and its absence hold for the method and conditions named. Binding seen in cells or lysates may run through a third protein. A yes stands for co-enrichment or nearness to the bait. Other partners may have been found. Where a sequence is shown, tags or fusion partners need not be part of it.

Protein sequences, listed by entry. Tags and fused reporters are not part of them.
UniProt P38249: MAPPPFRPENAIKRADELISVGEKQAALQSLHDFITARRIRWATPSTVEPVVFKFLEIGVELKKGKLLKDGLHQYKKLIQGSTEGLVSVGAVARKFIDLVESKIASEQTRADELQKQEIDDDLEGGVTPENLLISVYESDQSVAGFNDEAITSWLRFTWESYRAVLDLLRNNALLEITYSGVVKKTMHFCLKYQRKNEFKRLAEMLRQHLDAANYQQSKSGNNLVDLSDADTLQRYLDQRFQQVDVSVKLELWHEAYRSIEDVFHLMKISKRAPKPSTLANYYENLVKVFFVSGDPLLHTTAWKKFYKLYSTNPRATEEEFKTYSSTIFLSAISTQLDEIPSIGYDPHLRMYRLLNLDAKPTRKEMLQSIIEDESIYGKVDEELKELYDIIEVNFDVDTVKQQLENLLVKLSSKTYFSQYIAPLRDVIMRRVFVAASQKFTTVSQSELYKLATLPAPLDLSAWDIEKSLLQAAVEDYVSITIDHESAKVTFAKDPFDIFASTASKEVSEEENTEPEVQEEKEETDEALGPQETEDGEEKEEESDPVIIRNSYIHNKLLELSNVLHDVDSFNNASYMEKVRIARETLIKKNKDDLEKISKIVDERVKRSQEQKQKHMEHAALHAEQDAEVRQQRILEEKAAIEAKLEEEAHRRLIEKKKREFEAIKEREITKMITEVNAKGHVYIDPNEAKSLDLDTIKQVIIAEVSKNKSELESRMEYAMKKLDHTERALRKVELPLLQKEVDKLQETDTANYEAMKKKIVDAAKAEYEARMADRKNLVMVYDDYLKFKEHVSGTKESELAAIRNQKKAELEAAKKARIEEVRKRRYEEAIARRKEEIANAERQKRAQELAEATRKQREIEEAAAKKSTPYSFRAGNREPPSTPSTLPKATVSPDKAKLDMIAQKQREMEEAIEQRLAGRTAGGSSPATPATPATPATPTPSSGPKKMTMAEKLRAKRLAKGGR
UniProt P07260: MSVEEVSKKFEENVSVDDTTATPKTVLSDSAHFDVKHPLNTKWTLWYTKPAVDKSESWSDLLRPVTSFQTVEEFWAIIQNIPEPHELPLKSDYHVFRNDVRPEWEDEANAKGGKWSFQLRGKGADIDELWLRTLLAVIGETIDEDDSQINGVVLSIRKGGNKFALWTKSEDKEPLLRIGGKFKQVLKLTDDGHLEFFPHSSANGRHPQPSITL

T1: TAP-tagged Yhr087wp (S. cerevisiae) (UniProt P38804)
T1 sequence: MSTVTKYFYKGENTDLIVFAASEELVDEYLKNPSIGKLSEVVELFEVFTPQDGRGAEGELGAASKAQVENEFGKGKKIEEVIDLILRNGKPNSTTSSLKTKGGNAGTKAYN


Target: T1, TAP-tagged Yhr087wp (S. cerevisiae)
Experiment: affinity purification with mass spectrometry; tandem affinity purification of Yhr087wp-TAP (IgG Sepharose, then calmodulin) from 6 L of exponential YPD culture transferred for 90 min to YP20; associated proteins identified by mass spectrometry (Protein Pilot and MASCOT)

| binding | Molecule |
| --- | --- |
| binds | Tif32p (from UniProt P38249 1-964) |
| binds | Cdc33p (from UniProt P07260 1-213) |
| binds | Atp7p (protein, UniProt P30902 1-174) MSLAKSAANKLDWAKVISSLRITGSTATQLSSFKKRNDEARRQLLELQSQPTEVDFSHYRSVLKNTSVIDKIESYVKQYKPVKIDASKQLQVIESFEKHAMTNAKETESLVSKELKDLQSTLDNIQSARPFDELTVDDLTKIKPEIDAKVEEMVKKGKWDVPGYKDRFGNLNVM |
| binds | Scp160p (protein, UniProt P06105 1-1222) MSEEQTAIDSPPSTVEGSVETVTTIDSPSTTASTIAATAEEHPQLEKKPTPLPSLKDLPSLGSNAAFANVKVSWGPNMKPAVSNSPSPSPSAPSLTTGLGAKRMRSKNIQEAFTLDLQSQLSITKPELSRIVQSVKKNHDVSVESTLSKNARTFLVSGVAANVHEAKRELVKKLTKPINAVIEVPSKCKASIIGSGGRTIREISDAYEVKINVSKEVNENSYDEDMDDTTSNVSLFGDFESVNLAKAKILAIVKEETKNATIKLVVEDEKYLPYIDVSEFASDEGDEEVKVQFYKKSGDIVILGPREKAKATKTSIQDYLKKLASNLDEEKVKIPSKFQFLIDAEELKEKYNVIVTFPSTPDDELVSFVGLRDKVGEAITYARSSSKSYVVESLDISKAHSKNLTHAKNLIMYFTKYSVLKGLEESHPNVKISLPSIQSLPTAETVTIHISAKSDEANDIKAVRKELISFVNNIPPSETLVITDLDYELFGGSIKHCLLASESSVAFVQFGDYYPNDNSILLVALTEDEDFKPSIEEIQASLNKANESLNSLRTKQNNMETKTYEFSEEVQDSLFKPSSATWKLIMEDISEQEGHLQIKLHTPEENQLTVRGDEKAAKAANKIFESILNSPSSKSKMTVNIPANSVARLIGNKGSNLQQIREKFACQIDIPNEENNNASKDKTVEVTLTGLEYNLTHAKKYLAAEAKKWADIITKELIVPVKFHGSLIGPHGTYRNRLQEKYNVFINFPRDNEIVTIRGPSRGVNKAHEELKALLDFEMENGHKMVINVPAEHVPRIIGKNGDNINDIRAEYGVEMDFLQKSTDPKAQETGEVELEITGSRQNIKDAAKRVESIVAEASDFVTEVLKIDHKYHKSIVGSGGHILREIISKAGGEEIRNKSVDIPNADSENKDITVQGPQKFVKKVVEEINKIVKDAENSVTKTIDIPAERKGALIGPGGIVRRQLESEFNINLFVPNKDDPSGKITITGAPENVEKAEKKILNEIIRENFDREVDVPASIYEYVSERGAFIQKLRMDLSVNVRFGNTSKKANKLARAPIEIPLEKVCGSTEGENAEKTKFTIEEVGAPTSSEEGDITMRLTYEPIDLSSILSDGEEKEVTKDTSNDSAKKEEALDTAVKLIKERIAKAPSATYAGYVWGADTRRFNMIVGPGGSNIKKIREAADVIINVPRKSDKVNDVVYIRGTKAGVEKAGEMVLKSLRR |
| binds | Osh7p (protein, UniProt P38755 1-437) MALNKLKNIPSLTNSSHSSINGIASNAANSKPSGADTDDIDENDESGQSILLNIISQLKPGCDLSRITLPTFILEKKSMLERITNQLQFPDVLLEAHSNKDGLQRFVKVVAWYLAGWHIGPRAVKKPLNPILGEHFTAYWDLPNKQQAFYIAEQTSHHPPESAYFYMIPESNIRVDGVVVPKSKFLGNSSAAMMEGLTVLQFLDIKDANGKPEKYTLSQPNVYARGILFGKMRIELGDHMVIMGPKYQVDIEFKTKGFISGTYDAIEGTIKDYDGKEYYQISGKWNDIMYIKDLREKSSKKTVLFDTHQHFPLAPKVRPLEEQGEYESRRLWKKVTDALAVRDHEVATEEKFQIENRQRELAKKRAEDGVEFHSKLFRRAEPGEDLDYYIYKHIPEGTDKHEEQIRSILETAPILPGQTFTEKFSIPAYKKHGIQKN |
| binds | Cmk1p (protein, UniProt P27466 1-446) MDDKVSEKESSPKQTEEDSEGKMAHVQPASYVNKKKYVFGKTLGAGTFGVVRQAKNTETGEDVAVKILIKKALKGNKVQLEALYDELDILQRLHHPNIVAFKDWFESKDKFYIITQLAKGGELFDRILKKGKFTEEDAVRILVEILSAVKYMHSQNIVHRDLKPENLLYIDKSDESPLVVADFGIAKRLKSDEELLYKPAGSLGYVAPEVLTQDGHGKPCDIWSIGVITYTLLCGYSAFRAERVQDFLDECTTGEYPVKFHRPYWDSVSNKAKQFILKALNLDPSKRPTAAELLEDPWIICTELKTHNLLPGLKEGLDARQKFRNSVERVRLNMKIQKLRDLYLEQTESDSDFDEGSQANGSVPPLKATDTSQLSKKLSEEEQSKLKSELTSKAFAQLVNTVLAEKEKFLNINRVCSSDSDLPGSDIKSLDEAKEKPEGKDTKTEE |

Continued, molecule first:

| Molecule | binding |
| --- | --- |
| Tfg1p (protein, UniProt P41895 1-735) MSRRNPPGSRNGGGPTNASPFIKRDRMRRNFLRMRMGQNGSNSSSPGVPNGDNSRGSLVKKDDPEYAEEREKMLLQIGVEADAGRSNVKVKDEDPNEYNEFPLRAIPKEDLENMRTHLLKFQSKKKINPVTDFHLPVRLHRKDTRNLQFQLTRAEIVQRQKEISEYKKKAEQERSTPNSGGMNKSGTVSLNNTVKDGSQTPTVDSVTKDNTANGVNSSIPTVTGSSVPPASPTTVSAVESNGLSNGSTSAANGLDGNASTANLANGRPLVTKLEDAGPAEDPTKVGMVKYDGKEVTNEPEFEEGTMDPLADVAPDGGGRAKRGNLRRKTRQLKVLDENAKKLRFEEFYPWVMEDFDGYNTWVGSYEAGNSDSYVLLSVEDDGSFTMIPADKVYKFTARNKYATLTIDEAEKRMDKKSGEVPRWLMKHLDNIGTTTTRYDRTRRKLKAVADQQAMDEDDRDDNSEVELDYDEEFADDEEAPIIDGNEQENKESEQRIKKEMLQANAMGLRDEEAPSENEEDELFGEKKIDEDGERIKKALQKTELAALYSSDENEINPYLSESDIENKENESPVKKEEDSDTLSKSKRSSPKKQQKKATNAHVHKEPTLRVKSIKNCVIILKGDKKILKSFPEGEWNPQTTKAVDSSNNASNTVPSPIKQEEGLNSTVAEREETPAPTITEKDIIEAIGDGKVNIKEFGKFIRRKYPGAENKKLMFAIVKKLCRKVGNDHMELKKE | binds |
| Cmk2p (protein, UniProt P22517 1-447) MPKESEVINSEFHVDVQDPERLNGHPVAKFINKLSGQPESYVNRTNYIFGRTLGAGSFGVVRQARKLSTNEDVAIKILLKKALQGNNVQLQMLYEELSILQKLSHPNIVSFKDWFESKDKFYIVTQLATGGELFDRILSRGKFTEVDAVEIIVQILGAVEYMHSKNVVHRDLKPENVLYVDKSENSPLVIADFGIAKQLKGEEDLIYKAAGSLGYVAPEVLTQDGHGKPCDIWSIGVITYTLLCGYSPFIAESVEGFMEECTASRYPVTFHMPYWDNISIDVKRFILKALRLNPADRPTATELLDDPWITSKRVETSNILPDVKKGFSLRKKLRDAIEIVKLNNRIKRLRNMYSLGDDGDNDIEENSLNESLLDGVTHSLDDLRLQSQKKGGELTEEQMKLKSALTKDAFVQIVKAATKNKHKVLAGEEEDDSKKTLHDDRESKSED | binds |
| Tif4631p (protein, UniProt P39935 1-952) MTDETAHPTQSASKQESAALKQTGDDQQESQQQRGYTNYNNGSNYTQKKPYNSNRPHQQRGGKFGPNRYNNRGNYNGGGSFRGGHMGANSSNVPWTGYYNNYPVYYQPQQMAAAGSAPANPIPVEEKSPVPTKIEITTKSGEHLDLKEQHKAKLQSQERSTVSPQPESKLKETSDSTSTSTPTPTPSTNDSKASSEENISEAEKTRRNFIEQVKLRKAALEKKRKEQLEGSSGNNNIPMKTTPENVEEKGSDKPEVTEKTKPAEEKSAEPEVKQETPAEEGEQGEKGQIKEESTPKVLTFAERLKLKKQQKEREEKTEGKENKEVPVQEETKSAIESAPVPPSEQVKEETEVAETEQSNIDESATTPAIPTKSDEAEAEVEAEAGDAGTKIGLEAEIETTTDETDDGTNTVSHILNVLKDATPIEDVFSFNYPEGIEGPDIKYKKEHVKYTYGPTFLLQFKDKLNVKADAEWVQSTASKIVIPPGMGRGNRSRDSGRFGNNSSRGHDFRNTSVRNMDDRANSRTSSKRRSKRMNDDRRSNRSYTSRRDRERGSYRNEEKREDDKPKEEVAPLVPSANRWVPKFKSKKTEKKLAPDGKTELLDKDEVERKMKSLLNKLTLEMFDAISSEILAIANISVWETNGETLKAVIEQIFLKACDEPHWSSMYAQLCGKVVKELNPDITDETNEGKTGPKLVLHYLVARCHAEFDKGWTDKLPTNEDGTPLEPEMMSEEYYAAASAKRRGLGLVRFIGFLYRLNLLTGKMMFECFRRLMKDLTDSPSEETLESVVELLNTVGEQFETDSFRTGQATLEGSQLLDSLFGILDNIIQTAKISSRIKFKLIDIKELRHDKNWNSDKKDNGPKTIQQIHEEEERQRQLKNNSRSNSRRTNNSSNRHSFRRDAPPASKDSFITTRTYSQRNSQRAPPPKEEPAAPTSTATNMFSALMGESDDEE | binds |
| Sti1p (protein, UniProt P15705 1-589) MSLTADEYKQQGNAAFTAKDYDKAIELFTKAIEVSETPNHVLYSNRSACYTSLKKFSDALNDANECVKINPSWSKGYNRLGAAHLGLGDLDEAESNYKKALELDASNKAAKEGLDQVHRTQQARQAQPDLGLTQLFADPNLIENLKKNPKTSEMMKDPQLVAKLIGYKQNPQAIGQDLFTDPRLMTIMATLMGVDLNMDDINQSNSMPKEPETSKSTEQKKDAEPQSDSTTSKENSSKAPQKEESKESEPMEVDEDDSKIEADKEKAEGNKFYKARQFDEAIEHYNKAWELHKDITYLNNRAAAEYEKGEYETAISTLNDAVEQGREMRADYKVISKSFARIGNAYHKLGDLKKTIEYYQKSLTEHRTADILTKLRNAEKELKKAEAEAYVNPEKAEEARLEGKEYFTKSDWPNAVKAYTEMIKRAPEDARGYSNRAAALAKLMSFPEAIADCNKAIEKDPNFVRAYIRKATAQIAVKEYASALETLDAARTKDAEVNNGSSAREIDQLYYKASQQRFQPGTSNETPEETYQRAMKDPEVAAIMQDPVMQSILQQAQQNPAALQEHMKNPEVFKKIQTLIAAGIIRTGR | binds |
